According to PubChem BioAssay AID504467 (National Center for Advancing Translational Sciences (NCATS), 2011):
Screen size: about 330,000 compounds; about 7,700 (2.3%) were called active. The inconclusive results got no clear call from the source; some entries with a clear call stand among them for comparison. Calls come from the whole dose curve; as a rule, active = well fitted inhibition curve with a large enough effect; inconclusive = small, poorly fitted or top-dose-only effect, or effect the other way; inactive = flat fitted curve, though single readings scatter. Potencies beside an inconclusive call are fits to weak or partial responses and may not hold up.

test: qHTS screen for small molecules that inhibit ELG1-dependent DNA repair in human embryonic kidney (HEK293T) cells expressing luciferase-tagged ELG1; conditions: HEK293T ELG1-luciferase reporter, luminescence, 16 h, DNA damage induced by 5-fluorouridine; activity change, negative = inhibition: at 46.1 µM (top of the series); note: nearly all actives have a fitted effect of over 55% in size
How it was run: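 Overnight (16 hr) co-exposure of 2,000 cells/well to 5-fluorouridine and compound at 37 °C preceded detection. Luciferase was quantified via ONE-Glo luminescence; loss of signal denotes inhibition.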
% is set by controls: 0 for no effect and ±100 for the full control effect; potency is the fitted concentration of half-maximal effect.

SMILES | Potency | activity change, negative = inhibition
COc1ccc(N(C)S(=O)(=O)c2cccc(C(=O)Nc3nc(C)c(C(C)=O)s3)c2)cc1 | active: 10.3 µM | –
COc1cc(SC)ccc1C(=O)NC1CCCCC1 | inconclusive: 29.1 µM [activator, single point] | –
O=C(Nc1ccc(C(F)(F)F)cc1)c1ccccc1 | inconclusive: 2.91 µM [activator, partial curve, poor fit] | –
CCOC(=O)C1=NN(c2ccccc2C)C2=NC(C)=C(C(=O)OC)C(c3cccc(OC)c3)N12 (centres undefined) | inconclusive: 29.1 µM [inhibitor, single point] | –
Cc1cc(=O)[nH]c2c1c(-c1ccccc1)nn2C | inconclusive: 29.1 µM [activator, single point] | –
CSc1ccccc1OCc1cc(C(=O)NCc2ccc(C)s2)no1 | inconclusive: 18.3 µM [activator, single point] | –
CCOC(=O)Cc1csc(NC(=O)c2cccc(OC)c2)n1 | – | inactive: 6.95%
c1ccc(-c2ccc(-c3nc(-c4ccncc4)no3)cc2)cc1 | inconclusive: 1.46 µM [activator, partial curve] | –
CC(C)(C)C(=O)Cn1ncc(N2CCOCC2)c(Br)c1=O | inconclusive: 29.1 µM [activator, single point] | –
CN(CC(=O)Nc1ccc(Br)cc1)Cc1ccccc1 | inconclusive: 29.1 µM [activator, single point] | –
Cc1ccc(C(=O)NC(C#N)=C(Cl)Cl)cc1 | inconclusive: 29.1 µM [inhibitor, single point] | –
Cc1nc2cc(-c3ccc(Cl)cc3)nn2c(C)c1CCC(=O)NC(C)c1ccc2c(c1)OCCO2 (centres undefined) | inconclusive: 18.4 µM [inhibitor, single point] | –
COc1ccc(CN(C(=O)c2snc(C(N)=O)c2N)C(C(=O)NC2CCCC2)c2cc(OC)ccc2OC)cc1 (centres undefined) | inconclusive: 16.4 µM [inhibitor, single point] | –
O=C(Nc1ccc(Cl)cc1)Nc1cc([N+](=O)[O-])ccc1F | active: 13 µM | –
Cc1ccc(C)c(OCC(=O)Nc2cccc(S(=O)(=O)NC3=NCCCCC3)c2)c1 | inconclusive: 7.3 µM [inhibitor, partial curve, poor fit] | –
CCn1c(=O)c2cc(C(=O)NCCOC)sc2c2ccccc21 | inconclusive: 5.17 µM [activator, full curve, poor fit] | –
COC(=O)c1ccc(CSc2nncn2C)cc1 | inconclusive: 20.6 µM [activator, partial curve] | –
CC(NC(=O)CCC(=O)NCc1ccc(F)cc1)c1ccccc1 (centres undefined) | – | inactive: -11.6%
Nc1nonc1-c1noc(-c2ccccc2Br)n1 | inconclusive: 23.1 µM [activator, partial curve] | –
Cc1ccc(CNC(=O)CCC2CCCN(Cc3cc4ccccc4o3)C2)o1 (centres undefined) | inconclusive: 20.6 µM [inhibitor, partial curve, poor fit] | –
O=C(c1cc2c(ccc3ccccc32)o1)N1CCCCC1 | inconclusive: 3.26 µM [activator, partial curve] | –
Cn1cccc1/C=N/NC(=O)c1ccccn1 | inconclusive: 20.6 µM [activator, partial curve] | –
CCN1C(=O)CSC1=Nc1ccc(C(=O)O)cc1 | – | inactive: -2.73%

SMILES | Potency | activity change, negative = inhibition
FCCCOc1ccc(-c2ccnc(-c3ccccc3)n2)cc1 | inconclusive: 16.4 µM [activator, partial curve] | –
Cc1ccc2[nH]c3c(=O)n(N)c(C)nc3c2c1 | inconclusive: 14.6 µM [activator, partial curve, poor fit] | –
CCOC(=O)Nc1ccc(NC(=O)c2c(OC)cccc2OC)cc1 | – | inactive: 4.39%
CCOc1ccccc1N1CCN(c2ncnc3scc(-c4ccc(OC)cc4)c23)CC1 | active: 14.6 µM | –
CN(Cc1ccccc1)C(=S)NC(=O)c1ccc(-c2ccccc2)cc1 | inconclusive: 14.6 µM [activator, partial curve, poor fit] | –
COc1cc(C2C(C#N)=C(N)N(Nc3ccccc3)C3=C2C(=O)CC(C)(C)C3)ccc1OCc1ccccc1 (centres undefined) | inconclusive: 32.6 µM [inhibitor, partial curve, poor fit] | –
Nc1nc(-c2c[nH]c3ccccc23)cs1 | inconclusive: 18.4 µM [activator, partial curve, poor fit] | –
O=C(C1CCN(S(=O)(=O)c2cccc3cccnc23)CC1)N1CCN(c2ccccc2)CC1 | inconclusive: 18.4 µM [inhibitor, single point] | –
O=C(CSc1ccsc1[N+](=O)[O-])N1CCCCCC1 | inconclusive: 25.9 µM [activator, single point] | –
Cc1cc(C)n(-c2cc(N3CCN(C(=O)c4cccc(F)c4)CC3)ccc2[N+](=O)[O-])n1 | active: 20.6 µM | –
CCC1(CC)NC(=O)N(CC(=O)OCC(=O)Nc2ccccc2OC(F)F)C1=O | inconclusive: 0.73 µM [inhibitor, single point] | –
COc1cccc(NC(=O)c2ocnc2C)c1 | inconclusive: 20.6 µM [activator, partial curve] | –
COc1ccc(N2CC(C(=O)Nc3ccccc3C(=O)NC3CC3)CC2=O)cc1 (centres undefined) | – | inactive: 15.9%
CC(C)CNS(=O)(=O)c1ccc(CCC(=O)N2CCN(Cc3ccc4c(c3)OCO4)CC2)cc1 | active: 9.2 µM | –
CCc1ccc(C(=O)N/N=C/c2ccc(Cl)cc2Cl)nc1 | inconclusive: 16.4 µM [activator, partial curve] | –
O=C(c1ccc(N2CCOCC2)cc1)c1cccs1 | inconclusive: 5.17 µM [activator, partial curve] | –
COc1ccc(-c2cc(CCCC(=O)NCc3ccccn3)no2)cc1 | inconclusive: 8.2 µM [activator, partial curve] | –
COc1cc(OC)cc(OC(=O)C2CCN(C(=O)c3ccc(F)cc3)CC2)c1 | – | inactive: 10.1%
CC(/C=N/Nc1ncc(C)c(=O)[nH]1)=C\c1ccccc1 | inconclusive: 23.1 µM [activator, partial curve, poor fit] | –
Cc1ccc(NC(=O)c2ccc3nccnc3c2)c(C)c1 | inconclusive: 9.2 µM [activator, partial curve] | –
CN1CCCC(OC(=O)c2ccc(C#N)cc2)C1 (centres undefined) | inconclusive: 18.3 µM [activator, single point] | –
O=C(Nc1ccc(-c2noc(COc3ccccc3Cl)n2)cc1)c1ccco1 | inconclusive: 9.2 µM [activator, partial curve] | –
O=[N+]([O-])c1ccc(/C=N/N2CCCCC2)cc1 | inconclusive: 20.6 µM [activator, partial curve] | –

SMILES | Potency | activity change, negative = inhibition
COc1cc(C(=O)NCC(=O)NCCN2C(=O)S/C(=C\c3ccc4c(c3)OCO4)C2=O)cc(OC)c1OC | inconclusive: 9.2 µM [inhibitor, single point] | –
COc1ccc(-n2cnnc2SCc2ncc(-c3ccccc3)o2)cc1 | – | inactive: -13.5%
Cn1nnnc1SCC(=O)Nc1ncc(C(F)(F)F)cc1Cl | inconclusive: 9.2 µM [activator, partial curve, poor fit] | –
COc1ccc(NC(=O)c2cccc(NC(=O)c3ccco3)c2)c(OC)c1 | active: 18.4 µM | –
CCc1nnc(NC(=O)c2nc(S(=O)(=O)Cc3ccc(C)cc3)ncc2Cl)s1 | inconclusive: 25.9 µM [inhibitor, single point] | –
Nc1ccccc1SSc1ccccc1N | inconclusive: 16.4 µM [activator, partial curve] | –
N#Cc1c(/N=C/c2ccc(Br)s2)sc2c1CCC2 | inconclusive: 4.61 µM [activator, partial curve] | –
COc1cc(S(=O)(=O)NCCOC23CC4CC(CC(C4)C2)C3)c(OC)cc1Cl | active: 16.4 µM | –
Cc1cccc(NC(=S)NC(C)(C)CC(C)(C)C)c1 | inconclusive: 29.1 µM [inhibitor, single point] | –
Cc1ccc(CNC(=O)CC2(CC3=NS(=O)(=O)c4ccccc4N3)CCCC2)cc1 | inconclusive: 29.1 µM [inhibitor, single point] | –
COc1ccccc1C/C(N)=N/OC(=O)c1cccc([N+](=O)[O-])c1 | – | inactive: -0.0089%
Cc1ccc(C)c(NC(=S)c2nc3ccccc3s2)c1 | inconclusive: 18.4 µM [activator, partial curve] | –
O=C(CSCc1ccc(Br)cc1)Nc1ccc(S(=O)(=O)N2CCOCC2)cc1 | – | inactive: -18.9%
CCc1noc(C)c1C(=O)Nc1nc(-c2cc(OC)ccc2OC)cs1 | active: 16.4 µM | –
Cc1nn(-c2ccccc2)c(C)c1/C=N\N1CCN(c2ccc(Cl)cc2)CC1 | inconclusive: 32.6 µM [inhibitor, single point] | –
COc1ccc(Cl)cc1C(=O)Nn1cnnc1 | – | inactive: 0.305%
CCOC(=O)C1CCCN(C(=O)c2cc3nc(-c4ccc5c(c4)OCO5)cc(C(F)(F)F)n3n2)C1 (centres undefined) | inconclusive: 35.5 µM [inhibitor, single point] | –
Cc1c(CN2CCc3c([nH]c4ccccc34)C2C2CCCCC2)cnn1C (centres undefined) | – | inactive: 11.2%
COc1ccc(-n2nc(C(=O)NCC(=O)N3CCN(c4ccccc4)CC3)c3ccccc3c2=O)c(OC)c1 | inconclusive: 3.26 µM [activator, full curve] | –
O=C(CCNC(=O)c1ccccc1Cl)Nc1nc2ccc(F)cc2s1 | inconclusive: 3.66 µM [activator, full curve] | –
CC(O)CSc1nc2c(c(=O)[nH]c(=O)n2C)n1Cc1ccccc1 (centres undefined) | inconclusive: 29.1 µM [activator, single point] | –
CCOc1nc(Nc2cc(Cl)ccc2OC)nc(OCC)n1 | – | inactive: 23.7%
CCN(CC)C(=O)c1cccc(NC(=O)CCc2nc3sc4c(c3c(=O)[nH]2)CCCC4)c1 | inconclusive: 20.6 µM [inhibitor, single point] | –

Some of these compounds in order of heavy-atom count, rising.
SMILES | Potency | activity change, negative = inhibition
COC(=O)c1ccc(CSc2nncn2C)cc1 | inconclusive: 20.6 µM [activator, partial curve] | –
Cc1ccc(CNC(=O)CCC2CCCN(Cc3cc4ccccc4o3)C2)o1 (centres undefined) | inconclusive: 20.6 µM [inhibitor, partial curve, poor fit] | –
COc1cc(C(=O)NCC(=O)NCCN2C(=O)S/C(=C\c3ccc4c(c3)OCO4)C2=O)cc(OC)c1OC | inconclusive: 9.2 µM [inhibitor, single point] | –
